Measured values reported in paper PMC5543055.

The chains behind the UniProt entries cited, without tags or fusion partners.
UniProt P40337: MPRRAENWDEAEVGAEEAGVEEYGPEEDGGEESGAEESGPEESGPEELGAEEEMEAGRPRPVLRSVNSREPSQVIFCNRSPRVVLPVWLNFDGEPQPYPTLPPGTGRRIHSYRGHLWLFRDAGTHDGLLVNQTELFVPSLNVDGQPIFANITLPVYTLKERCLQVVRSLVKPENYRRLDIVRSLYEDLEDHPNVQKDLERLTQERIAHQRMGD
UniProt O95573: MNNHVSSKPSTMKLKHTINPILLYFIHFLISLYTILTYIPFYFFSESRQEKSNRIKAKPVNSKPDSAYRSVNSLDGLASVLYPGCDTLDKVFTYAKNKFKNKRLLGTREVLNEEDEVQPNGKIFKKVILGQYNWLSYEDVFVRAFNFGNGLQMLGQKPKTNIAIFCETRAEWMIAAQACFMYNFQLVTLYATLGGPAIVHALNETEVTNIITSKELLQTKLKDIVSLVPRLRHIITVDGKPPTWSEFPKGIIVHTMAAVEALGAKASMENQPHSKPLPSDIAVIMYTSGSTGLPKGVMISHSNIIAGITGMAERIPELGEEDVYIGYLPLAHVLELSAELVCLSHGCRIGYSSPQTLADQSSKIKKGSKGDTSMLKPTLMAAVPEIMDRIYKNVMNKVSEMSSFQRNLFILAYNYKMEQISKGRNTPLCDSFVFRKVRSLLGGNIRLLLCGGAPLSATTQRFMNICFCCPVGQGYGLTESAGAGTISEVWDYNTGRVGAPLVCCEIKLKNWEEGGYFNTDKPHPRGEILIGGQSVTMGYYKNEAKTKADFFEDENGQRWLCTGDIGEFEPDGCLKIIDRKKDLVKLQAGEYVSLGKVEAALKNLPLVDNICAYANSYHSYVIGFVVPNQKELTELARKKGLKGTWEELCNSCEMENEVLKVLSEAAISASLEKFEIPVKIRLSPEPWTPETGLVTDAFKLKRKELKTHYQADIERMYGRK
UniProt P27708: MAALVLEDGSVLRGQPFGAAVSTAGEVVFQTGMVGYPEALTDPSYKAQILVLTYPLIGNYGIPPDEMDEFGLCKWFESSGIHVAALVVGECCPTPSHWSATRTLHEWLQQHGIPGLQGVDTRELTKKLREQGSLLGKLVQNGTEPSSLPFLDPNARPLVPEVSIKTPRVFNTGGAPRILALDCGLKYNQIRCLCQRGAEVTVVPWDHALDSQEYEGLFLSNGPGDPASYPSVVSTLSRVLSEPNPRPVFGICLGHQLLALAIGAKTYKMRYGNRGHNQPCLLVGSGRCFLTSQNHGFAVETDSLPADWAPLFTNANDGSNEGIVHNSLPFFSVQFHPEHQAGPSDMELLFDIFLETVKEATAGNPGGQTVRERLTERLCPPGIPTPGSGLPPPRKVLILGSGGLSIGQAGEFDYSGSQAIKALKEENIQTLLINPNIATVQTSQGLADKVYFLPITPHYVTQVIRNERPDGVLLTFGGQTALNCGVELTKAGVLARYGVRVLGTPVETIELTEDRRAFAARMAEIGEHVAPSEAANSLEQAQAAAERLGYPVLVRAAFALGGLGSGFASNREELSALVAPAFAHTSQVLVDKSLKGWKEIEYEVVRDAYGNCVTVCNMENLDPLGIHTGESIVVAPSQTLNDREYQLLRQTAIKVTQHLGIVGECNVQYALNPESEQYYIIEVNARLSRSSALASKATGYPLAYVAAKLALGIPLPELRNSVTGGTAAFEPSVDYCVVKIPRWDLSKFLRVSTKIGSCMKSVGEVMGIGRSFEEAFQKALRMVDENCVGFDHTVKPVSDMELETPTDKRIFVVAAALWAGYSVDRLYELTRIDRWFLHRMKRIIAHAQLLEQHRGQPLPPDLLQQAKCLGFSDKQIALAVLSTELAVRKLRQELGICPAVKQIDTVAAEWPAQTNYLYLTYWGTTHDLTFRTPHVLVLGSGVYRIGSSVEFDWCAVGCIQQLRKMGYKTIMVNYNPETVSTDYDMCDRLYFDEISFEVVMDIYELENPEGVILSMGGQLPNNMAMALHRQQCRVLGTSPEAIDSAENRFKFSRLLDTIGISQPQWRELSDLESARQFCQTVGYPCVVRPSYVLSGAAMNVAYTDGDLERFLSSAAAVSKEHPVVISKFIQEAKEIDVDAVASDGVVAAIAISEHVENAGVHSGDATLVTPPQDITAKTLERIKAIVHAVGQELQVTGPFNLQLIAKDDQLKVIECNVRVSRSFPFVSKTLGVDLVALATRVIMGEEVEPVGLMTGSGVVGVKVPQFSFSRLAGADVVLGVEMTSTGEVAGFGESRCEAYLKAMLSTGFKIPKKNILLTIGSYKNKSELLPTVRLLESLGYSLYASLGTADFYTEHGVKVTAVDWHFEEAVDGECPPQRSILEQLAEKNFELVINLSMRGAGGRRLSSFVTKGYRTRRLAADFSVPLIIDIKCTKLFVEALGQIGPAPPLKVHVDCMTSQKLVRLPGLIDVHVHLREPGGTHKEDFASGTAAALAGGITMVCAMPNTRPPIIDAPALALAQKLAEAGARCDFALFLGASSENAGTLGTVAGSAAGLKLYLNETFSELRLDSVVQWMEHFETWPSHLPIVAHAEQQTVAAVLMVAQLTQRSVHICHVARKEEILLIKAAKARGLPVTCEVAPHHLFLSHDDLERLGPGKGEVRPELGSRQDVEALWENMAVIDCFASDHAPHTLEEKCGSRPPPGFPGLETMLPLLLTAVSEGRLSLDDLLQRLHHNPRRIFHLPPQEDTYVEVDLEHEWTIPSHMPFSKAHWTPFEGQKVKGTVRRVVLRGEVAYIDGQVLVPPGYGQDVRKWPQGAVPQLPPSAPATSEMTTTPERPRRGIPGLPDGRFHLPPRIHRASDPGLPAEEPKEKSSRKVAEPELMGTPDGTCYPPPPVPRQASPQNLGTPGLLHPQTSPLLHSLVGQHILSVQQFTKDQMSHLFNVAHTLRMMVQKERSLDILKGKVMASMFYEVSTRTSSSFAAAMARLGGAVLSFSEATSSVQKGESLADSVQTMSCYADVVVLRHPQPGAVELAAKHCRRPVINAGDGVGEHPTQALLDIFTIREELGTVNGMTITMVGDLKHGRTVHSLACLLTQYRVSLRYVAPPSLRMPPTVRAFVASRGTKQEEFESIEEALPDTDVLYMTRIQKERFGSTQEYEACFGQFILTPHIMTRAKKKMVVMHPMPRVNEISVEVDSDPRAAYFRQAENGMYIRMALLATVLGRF

Target: Flag-tagged wild-type von Hippel-Lindau tumour suppressor protein (pVHL), stably expressed in HCT116 (human) (UniProt P40337)
Assay: affinity purification with mass spectrometry; Flag-pVHL stably expressed in HCT116 cultured with the proteasome inhibitor MG132; affinity purification from whole cell extracts, 4-20% SDS-PAGE, bands identified by LC-MS/MS

| Substance | binding |
| --- | --- |
| acyl-CoA synthetase 3, endogenous in HCT116 (from UniProt O95573 1-720) (enzyme) | binds |
| carbamoyl-phosphate synthetase 2, aspartate transcarbamylase and dihydroorotase (CAD), endogenous in HCT116 (from UniProt P27708 1-2225) (enzyme) | binds |

These are yes or no findings as the source states them, for the method shown. Binding seen in cells or lysates may run through a third protein. These calls come from enrichment with a bait or labelling near it, and not all partners need be listed.
